Measured data: PubChem BioAssay AID1259308 (NCATS, 2017)
This is one part, drawn at random, of about 59,000 reagents tested. About 1,510 of them (2.6%) were called active. 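Calls use total luciferase alone and ignore viability, so some active siRNAs may act by altering cell number.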 A number with no mark means an inactive call. Reagents against one gene are numbered here. Further read-outs or replicates are left out here. Reagent sequences are not shown.

Aim: 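Candidate targets for better recombinant protein yield in mammalian cells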 (primary screen)
Cells: human HEK293 embryonic kidney cells stably expressing firefly luciferase (HEK-CMV-Luc2-Hygro)
Reagents: single siRNA against human genes, 0.8 pmol siRNA per well
Time to read-out: 72 h
Measurement: 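Luciferase light (ONE-Glo) measured on one replicate plate set and viability (CellTiter-Glo) on the other, scaled to a negative control siRNA, with robust z-scores and luciferase per cell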
Reading the numbers: total luciferase, z-score and total luciferase, % of control: higher = more reporter protein produced
Active means: 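An siRNA counts as active if its total luciferase robust z-score exceeds 3; genes with two or more such siRNAs out of three were retested with fresh siRNAs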
Meaning of the calls: active = raised luciferase; inactive = no rise

{"gene": "RANBP10 (RAN binding protein 10)", "reagent no.": 1, "total luciferase, z-score": 1.94, "total luciferase, % of control": 120}
{"gene": "RANBP10 (RAN binding protein 10)", "reagent no.": 2, "total luciferase, z-score": 0.319, "total luciferase, % of control": 88.2}
{"gene": "RANBP10 (RAN binding protein 10)", "reagent no.": 3, "total luciferase, z-score": 2.81, "total luciferase, % of control": 138}
{"gene": "OR10J5 (olfactory receptor family 10 subfamily J member 5)", "reagent no.": 1, "total luciferase, z-score": 0.837, "total luciferase, % of control": 98.5}
{"gene": "OR10J5 (olfactory receptor family 10 subfamily J member 5)", "reagent no.": 2, "total luciferase, z-score": -0.572, "total luciferase, % of control": 70.5}
{"gene": "OR10J5 (olfactory receptor family 10 subfamily J member 5)", "reagent no.": 3, "total luciferase, z-score": -0.068, "total luciferase, % of control": 80.5}
{"gene": "JMY (junction mediating and regulatory protein, p53 cofactor)", "reagent no.": 1, "total luciferase, z-score": -0.501, "total luciferase, % of control": 71.9}
{"gene": "JMY (junction mediating and regulatory protein, p53 cofactor)", "reagent no.": 2, "total luciferase, z-score": -0.107, "total luciferase, % of control": 79.8}
{"gene": "JMY (junction mediating and regulatory protein, p53 cofactor)", "reagent no.": 3, "total luciferase, z-score": 2.83, "total luciferase, % of control": 138}
{"gene": "SIGLEC10 (sialic acid binding Ig like lectin 10)", "reagent no.": 1, "total luciferase, z-score": -1.05, "total luciferase, % of control": 61.1}
{"gene": "SIGLEC10 (sialic acid binding Ig like lectin 10)", "reagent no.": 2, "total luciferase, z-score": 0.698, "total luciferase, % of control": 95.8}
{"gene": "SIGLEC10 (sialic acid binding Ig like lectin 10)", "reagent no.": 3, "total luciferase, z-score": -0.251, "total luciferase, % of control": 76.9}
{"gene": "TSR2 (TSR2 ribosome maturation factor)", "reagent no.": 1, "total luciferase, z-score": -0.876, "total luciferase, % of control": 64.5}
{"gene": "TSR2 (TSR2 ribosome maturation factor)", "reagent no.": 2, "total luciferase, z-score": -0.962, "total luciferase, % of control": 62.7}
{"gene": "TSR2 (TSR2 ribosome maturation factor)", "reagent no.": 3, "total luciferase, z-score": 0.178, "total luciferase, % of control": 85.4}
{"gene": "TSPAN32 (tetraspanin 32)", "reagent no.": 1, "total luciferase, z-score": 0.293, "total luciferase, % of control": 87.7}
{"gene": "TSPAN32 (tetraspanin 32)", "reagent no.": 2, "total luciferase, z-score": -0.54, "total luciferase, % of control": 71.1}
{"gene": "TSPAN32 (tetraspanin 32)", "reagent no.": 3, "total luciferase, z-score": -0.678, "total luciferase, % of control": 68.4}
{"gene": "LARP4 (La ribonucleoprotein 4)", "reagent no.": 1, "total luciferase, z-score": 0.256, "total luciferase, % of control": 87}
{"gene": "LARP4 (La ribonucleoprotein 4)", "reagent no.": 2, "total luciferase, z-score": 1.2, "total luciferase, % of control": 106}
{"gene": "LARP4 (La ribonucleoprotein 4)", "reagent no.": 3, "total luciferase, z-score": -0.259, "total luciferase, % of control": 76.7}

Taken from above.
Value of SIGLEC10 (sialic acid binding Ig like lectin 10) #1 under “total luciferase, z-score”: -1.05
For “total luciferase, z-score”, TSR2 (TSR2 ribosome maturation factor) #1 is entered as -0.876
